Data as given in PubChem BioAssay AID743121 (NCATS, 2013).
Purpose: 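Knock-downs that sensitise breast cancer cells to camptothecin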 (primary screen). System: MDA-MB-231 cells, a human breast cancer line. Knock-down reagent: single siRNA against human genes, 20 nM siRNA (0.8 pmol per well). Timing: 120 h (drug added 48 h after transfection, read 72 h later). Conditions: camptothecin 20 nM (about EC30) for 72 h; vehicle 0.1% DMSO in parallel plates. Detection: 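Cell viability by ATP luminescence (CellTiter-Glo) as % of non-targeting siRNA wells, and the log2 ratio of viability without drug over viability with camptothecin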. Direction: log2 vehicle/camptothecin viability: higher = stronger sensitisation to camptothecin; viability with camptothecin and viability without drug: higher = more viable cells. Rule for the call: 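Active genes have an RSA gene-level p-value below 0.001, computed from the ratios of their separate siRNAs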.
In all, the deposit lists about 26,000 reagents; this is a random part of them. Over the whole deposit, 167 (0.63%) are marked active. 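Calls are per gene from RSA p-values that are not deposited; an individual active-marked siRNA can sensitise only weakly.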 Reagents against one gene are numbered here. Reagent sequences are not shown.

| gene | reagent no. | log2 vehicle/camptothecin viability | viability with camptothecin (% of control) | viability without drug (% of control) | Outcome |
| --- | --- | --- | --- | --- | --- |
| NCF2 (neutrophil cytosolic factor 2) | 1 | -0.504 | 108 | 76.2 | inactive |
| NCF2 (neutrophil cytosolic factor 2) | 2 | 0.104 | 68 | 73.1 | inactive |
| NCF2 (neutrophil cytosolic factor 2) | 3 | -0.059 | 42.6 | 40.9 | inactive |
| NCF2 (neutrophil cytosolic factor 2) | 4 | -0.11 | 32.5 | 30.1 | inactive |
| LAMB3 (laminin subunit beta 3) | 1 | -0.143 | 82.9 | 75.1 | inactive |
| LAMB3 (laminin subunit beta 3) | 2 | -0.0119 | 48.7 | 48.3 | inactive |
| LAMB3 (laminin subunit beta 3) | 3 | 0.346 | 57.1 | 72.5 | inactive |
| CCNL2 (cyclin L2) | 1 | -0.574 | 69.3 | 46.5 | inactive |
| CCNL2 (cyclin L2) | 2 | 0.111 | 96.8 | 105 | inactive |
| CCNL2 (cyclin L2) | 3 | -0.598 | 44.1 | 29.1 | inactive |
| CCNL2 (cyclin L2) | 4 | 0.317 | 79.8 | 99.4 | inactive |
| PRKAR2B | 1 | 0.0483 | 87.2 | 90.2 | inactive |
| PRKAR2B | 2 | -0.0242 | 48.7 | 47.9 | inactive |
| PRKAR2B | 3 | 0.0442 | 80.6 | 83.1 | inactive |
| PRKAR2B | 4 | 0.16 | 35.6 | 39.7 | inactive |
| TPH1 (tryptophan hydroxylase 1) | 1 | -0.126 | 109 | 99.7 | inactive |
| TPH1 (tryptophan hydroxylase 1) | 2 | -0.0483 | 87.3 | 84.4 | inactive |
| TPH1 (tryptophan hydroxylase 1) | 3 | -0.449 | 47.3 | 34.7 | inactive |
| TPH1 (tryptophan hydroxylase 1) | 4 | -0.621 | 69.5 | 45.2 | inactive |
| MARCHF1 (membrane associated ring-CH-type finger 1) | 1 | 0.216 | 79.8 | 92.7 | inactive |
| MARCHF1 (membrane associated ring-CH-type finger 1) | 2 | -0.105 | 101 | 93.6 | inactive |
| MARCHF1 (membrane associated ring-CH-type finger 1) | 3 | -0.131 | 70.2 | 64.1 | inactive |
| MARCHF1 (membrane associated ring-CH-type finger 1) | 4 | -0.0759 | 107 | 102 | inactive |
| IL10RB (interleukin 10 receptor subunit beta) | 1 | -0.25 | 80.9 | 68 | inactive |
| IL10RB (interleukin 10 receptor subunit beta) | 2 | -0.297 | 130 | 105 | inactive |
| IL10RB (interleukin 10 receptor subunit beta) | 3 | 0.135 | 74.7 | 82 | inactive |
| IL10RB (interleukin 10 receptor subunit beta) | 4 | -0.0694 | 65.9 | 62.8 | inactive |

Sorted by “viability with camptothecin (% of control)” (highest first): some entries from above.
| gene | reagent no. | log2 vehicle/camptothecin viability | viability with camptothecin (% of control) | viability without drug (% of control) | Outcome |
| --- | --- | --- | --- | --- | --- |
| CCNL2 (cyclin L2) | 2 | 0.111 | 96.8 | 105 | inactive |
| PRKAR2B | 1 | 0.0483 | 87.2 | 90.2 | inactive |
| CCNL2 (cyclin L2) | 4 | 0.317 | 79.8 | 99.4 | inactive |
| CCNL2 (cyclin L2) | 1 | -0.574 | 69.3 | 46.5 | inactive |
| LAMB3 (laminin subunit beta 3) | 3 | 0.346 | 57.1 | 72.5 | inactive |
| CCNL2 (cyclin L2) | 3 | -0.598 | 44.1 | 29.1 | inactive |

The results go on.
| gene | reagent no. | log2 vehicle/camptothecin viability | viability with camptothecin (% of control) | viability without drug (% of control) | Outcome |
| --- | --- | --- | --- | --- | --- |
| OR3A4P (olfactory receptor family 3 subfamily A member 4 pseudogene) | 1 | -0.619 | 85.6 | 55.7 | inactive |
| OR3A4P (olfactory receptor family 3 subfamily A member 4 pseudogene) | 2 | 0.0107 | 90.5 | 91.2 | inactive |
| OR3A4P (olfactory receptor family 3 subfamily A member 4 pseudogene) | 3 | -0.59 | 50.7 | 33.7 | inactive |
| OR3A4P (olfactory receptor family 3 subfamily A member 4 pseudogene) | 4 | -0.214 | 104 | 89.4 | inactive |
| PLA2G2D (phospholipase A2 group IID) | 1 | 0.212 | 77.4 | 89.6 | inactive |
| PLA2G2D (phospholipase A2 group IID) | 2 | -0.0591 | 87.6 | 84.1 | inactive |
| PLA2G2D (phospholipase A2 group IID) | 3 | 0.95 | 15.1 | 29.1 | inactive |
| PLA2G2D (phospholipase A2 group IID) | 4 | -0.261 | 104 | 86.6 | inactive |
| ATR (ATR checkpoint kinase) | 1 | 0.258 | 87 | 104 | active |
| ATR (ATR checkpoint kinase) | 2 | 0.694 | 52.9 | 85.6 | active |
| ATR (ATR checkpoint kinase) | 3 | 0.906 | 29.4 | 55.2 | active |
| ATR (ATR checkpoint kinase) | 4 | 2.46 | 7.6 | 41.7 | active |
| LIMS1 (LIM zinc finger domain containing 1) | 1 | -0.307 | 120 | 97 | inactive |
| LIMS1 (LIM zinc finger domain containing 1) | 2 | -0.19 | 107 | 93.6 | inactive |
| LIMS1 (LIM zinc finger domain containing 1) | 3 | -0.325 | 79.1 | 63.2 | inactive |
| LIMS1 (LIM zinc finger domain containing 1) | 4 | 0.383 | 25.7 | 33.6 | inactive |
| CAPN6 (calpain 6) | 1 | -0.0806 | 73.6 | 69.6 | inactive |
| CAPN6 (calpain 6) | 2 | -0.282 | 72.5 | 59.7 | inactive |
| CAPN6 (calpain 6) | 3 | -0.235 | 103 | 87.5 | inactive |
| VIPR1 (vasoactive intestinal peptide receptor 1) | 1 | 0.905 | 36.9 | 69.1 | inactive |
| VIPR1 (vasoactive intestinal peptide receptor 1) | 2 | -0.5 | 65 | 46 | inactive |
| VIPR1 (vasoactive intestinal peptide receptor 1) | 3 | 0.106 | 78 | 84 | inactive |
| VIPR1 (vasoactive intestinal peptide receptor 1) | 4 | -0.176 | 95 | 84.1 | inactive |
| PPP3CC (protein phosphatase 3 catalytic subunit gamma) | 1 | 0.466 | 34.6 | 47.8 | inactive |
| PPP3CC (protein phosphatase 3 catalytic subunit gamma) | 2 | 0.312 | 71.4 | 88.6 | inactive |
| PPP3CC (protein phosphatase 3 catalytic subunit gamma) | 3 | -0.293 | 48.9 | 40 | inactive |
| PPP3CC (protein phosphatase 3 catalytic subunit gamma) | 4 | -0.0426 | 74.2 | 72 | inactive |
| UBE4A (ubiquitination factor E4A) | 1 | -0.324 | 96.5 | 77.1 | inactive |
| UBE4A (ubiquitination factor E4A) | 2 | -0.696 | 53 | 32.7 | inactive |
| UBE4A (ubiquitination factor E4A) | 3 | -0.0767 | 71.1 | 67.4 | inactive |
| UBE4A (ubiquitination factor E4A) | 4 | -0.0373 | 69.3 | 67.6 | inactive |
| LRP8 (LDL receptor related protein 8) | 1 | -0.0279 | 88.9 | 87.2 | inactive |
| LRP8 (LDL receptor related protein 8) | 2 | -0.24 | 86.5 | 73.2 | inactive |
| LRP8 (LDL receptor related protein 8) | 3 | -0.231 | 69.1 | 58.9 | inactive |
| LRP8 (LDL receptor related protein 8) | 4 | 0.0533 | 69.9 | 72.5 | inactive |
| HTT (huntingtin) | 1 | -0.00351 | 59.1 | 59 | inactive |
| HTT (huntingtin) | 2 | -0.313 | 74.4 | 59.8 | inactive |
| HTT (huntingtin) | 3 | 0.181 | 71.6 | 81.1 | inactive |
| HTT (huntingtin) | 4 | -0.363 | 98.3 | 76.4 | inactive |
| PRKAR2A | 1 | -0.281 | 55.4 | 45.6 | inactive |
| PRKAR2A | 2 | -0.263 | 92.2 | 76.9 | inactive |
| PRKAR2A | 3 | -0.407 | 50.5 | 38.1 | inactive |
| PRKAR2A | 4 | -0.0954 | 96.5 | 90.3 | inactive |
